Laboratory results taken from patent US20120003655A1, “IDENTIFICATION OF NEUROPROTECTIVE AGENTS USING PRO-INFLAMMATORY HUMAN GLIAL CELLS” (The Salk Institute for Biological Studies, priority 2008, published 2012).
These are yes or no findings as the source states them, for the method shown. Some entries that bind do so weakly or less than the wild type.

Sequences of proteins named here, by UniProt entry; tags and fusion partners are left off. A change or cut given only in a name is not applied to a line headed by its entry.
UniProt Q8CFE3: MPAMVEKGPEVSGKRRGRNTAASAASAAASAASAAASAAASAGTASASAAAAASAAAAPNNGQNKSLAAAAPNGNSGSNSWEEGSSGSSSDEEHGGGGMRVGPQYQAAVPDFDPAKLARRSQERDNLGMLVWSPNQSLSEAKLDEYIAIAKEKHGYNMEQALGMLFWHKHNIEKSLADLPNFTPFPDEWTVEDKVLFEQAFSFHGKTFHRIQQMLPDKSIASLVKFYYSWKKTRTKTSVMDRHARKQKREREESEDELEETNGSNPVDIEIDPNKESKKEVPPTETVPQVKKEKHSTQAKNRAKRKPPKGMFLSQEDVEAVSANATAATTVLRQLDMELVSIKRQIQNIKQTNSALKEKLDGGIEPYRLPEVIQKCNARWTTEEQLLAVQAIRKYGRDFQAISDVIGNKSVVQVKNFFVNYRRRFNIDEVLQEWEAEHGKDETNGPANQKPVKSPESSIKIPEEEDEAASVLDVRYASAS
UniProt Q06219: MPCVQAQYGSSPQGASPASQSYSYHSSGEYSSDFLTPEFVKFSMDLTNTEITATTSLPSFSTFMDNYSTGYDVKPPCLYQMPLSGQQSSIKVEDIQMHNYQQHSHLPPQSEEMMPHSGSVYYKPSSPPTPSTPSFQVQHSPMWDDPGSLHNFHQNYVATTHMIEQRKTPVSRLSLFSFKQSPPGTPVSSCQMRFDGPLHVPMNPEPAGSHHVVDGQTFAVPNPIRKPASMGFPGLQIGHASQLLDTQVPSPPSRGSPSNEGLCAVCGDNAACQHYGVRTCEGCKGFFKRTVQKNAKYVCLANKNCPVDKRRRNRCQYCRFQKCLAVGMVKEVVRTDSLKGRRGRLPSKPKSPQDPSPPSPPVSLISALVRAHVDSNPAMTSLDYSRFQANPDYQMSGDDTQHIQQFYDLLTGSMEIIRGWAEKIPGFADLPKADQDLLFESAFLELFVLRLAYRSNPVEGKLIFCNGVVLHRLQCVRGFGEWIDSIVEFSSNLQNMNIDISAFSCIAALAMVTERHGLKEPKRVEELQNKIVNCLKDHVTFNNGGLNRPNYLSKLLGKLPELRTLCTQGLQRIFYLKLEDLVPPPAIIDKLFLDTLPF

What was measured:
[1] = target: CoREST, as used in the GST-pull down of FIG. 24E (mouse) (UniProt Q8CFE3); experiment: GST-pull down (FIG. 24E)
[2] = target: 35S-labeled CoREST (mouse) (UniProt Q8CFE3); experiment: GST-pull down, 35S-labeled CoREST on GST-Nurr1 (FIG. 24D left panel)

Nurr1 DNA-binding domain (Nurr1-DBD), as used in the GST-pull down of FIG. 24E (from UniProt Q06219 260-335)
binding [1]: binds

GST-Nurr1 (wild-type full-length mouse Nurr1 in pGEX-6P) (from UniProt Q06219 1-598)
binding [2]: binds
